Reference: PubChem BioAssay AID504467 (National Center for Advancing Translational Sciences (NCATS), 2011)
The campaign covered roughly 330,000 compounds. About 7,700 (2.3%) were called active. Inconclusive results, whose numbers are uncertain, are shown with a selection of clear calls. Calls follow the shape of the dose curve; as a rule, active = well fitted inhibition curve with a large enough effect; inconclusive = small, poorly fitted or top-dose-only effect, or effect the other way; inactive = flat fitted curve, though single readings scatter. Potencies beside an inconclusive call are fits to weak or partial responses and may not hold up.

Test: qHTS screen for small molecules that inhibit ELG1-dependent DNA repair in human embryonic kidney (HEK293T) cells expressing luciferase-tagged ELG1; also: nearly all actives have a fitted effect of over 55% in size
Conditions: HEK293T ELG1-luciferase reporter, luminescence, 16 h, DNA damage induced by 5-fluorouridine; series mostly up to 46.1 µM
How it was run: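 Luminescence from the luciferase reporter, measured 30 min after ONE-Glo reagent at room temperature, was the read-out. Beforehand, 2,000 cells per well were exposed for 16 hr at 37 °C to 5-fluorouridine together with compound or vehicle.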
Potency is read from the fitted curve at half-maximal effect.

| SMILES | Potency |
| --- | --- |
| CS(=O)(=O)N1CCc2nc(-c3ccccc3)sc2C1 | inconclusive: 14.6 µM [activator, partial curve] |
| CCn1ncc(C2=NOC(C(=O)Nc3c(C)nn(Cc4ccc(F)cc4)c3C)C2)c1C (stereo not drawn) | active: 14.6 µM |
| CC(=O)Nc1ccc(OC(=O)c2ccc(Br)c([N+](=O)[O-])c2)cc1 | inconclusive: 29.1 µM [activator, single point] |
| Cc1ccc(-c2ccc(/C=N/NC(=O)Cc3nnc(N)s3)o2)cc1Cl | inactive |
| Fc1ccc(-c2nnc(-c3ccc(Cl)cc3Cl)o2)cc1 | inconclusive: 0.92 µM [activator, partial curve] |
| N#Cc1c(NC(=O)c2ccco2)sc2c1CCC2 | inconclusive: 18.3 µM [inhibitor, partial curve, poor fit] |
| CC(C)(C)SCCNC(=O)CN1C(=O)c2ccccc2S1(=O)=O | inconclusive: 16.4 µM [activator, partial curve] |
| CC1(C)Cc2nc3sc4c(N(CCO)CCO)nnnc4c3cc2CO1 | inconclusive: 14.6 µM [activator, single point] |
| O=C1CCCC(=O)N1c1ccc(N2CCN(c3ccc([N+](=O)[O-])cc3)CC2)c([N+](=O)[O-])c1 | inconclusive: 18.4 µM [inhibitor, partial curve, poor fit] |
| Cc1ccc(-c2ccc(CCC(=O)O)n2NC(=O)c2ccco2)cc1 | inconclusive: 13 µM [activator, partial curve, poor fit] |
| CCCN1C(=O)S/C(=C\c2ccc(N3CCOCC3)cc2C)C1=O | inconclusive: 5.8 µM [activator, full curve] |
| N#C/C(=C\c1ccc(-c2cccc([N+](=O)[O-])c2)o1)C(=O)N1CCOCC1 | inactive |
| Cc1cc([N+](=O)[O-])ccc1NC(=O)CCC(=O)N1CCCCCC1 | inconclusive: 23.1 µM [activator, partial curve, poor fit] |
| O=C(COc1ccccc1)N(Cc1ccco1)C1CCS(=O)(=O)C1 (stereo not drawn) | inconclusive: 32.6 µM [activator, single point] |
| CCC(NC(=O)Cc1c(C)c2cc3c(cc2oc1=O)OC(C)(C)CC3)C(=O)O (stereo not drawn) | inconclusive: 18.3 µM [activator, partial curve] |
| COc1ccc(COC(=O)N/N=C/c2cccs2)cc1 | inconclusive: 14.6 µM [activator, partial curve] |
| CCOC(=O)C1=C(COC(=O)COc2ccccc2C=O)NC(=O)NC1C (stereo not drawn) | inconclusive: 20.6 µM [activator, single point] |
| COc1ccc(C2=NOC(Cn3nc(C(=O)NCc4ccc(OC(F)(F)F)cc4)cc3-c3ccccc3)C2)cc1 (stereo not drawn) | inconclusive: 12.6 µM [inhibitor, single point] |
| COc1ccc(-c2cc3nc(C)cc(C)n3n2)cc1 | inconclusive: 10.3 µM [activator, partial curve] |
| COc1cc(OC)cc(-c2nnc(SCc3cccc(C(=O)O)c3)o2)c1 | inactive |
| Cc1ccc(SCc2nc3ccccc3[nH]2)cc1 | inconclusive: 11.6 µM [activator, partial curve] |
| CC1(C)CC2(CC(c3ccccc3F)c3cc(Cl)c(O)cc3O2)NC(=S)N1 (stereo not drawn) | inconclusive: 14.6 µM [inhibitor, partial curve, poor fit] |

3 compounds out of the list, sorted by formula weight, rising.

| SMILES | Potency |
| --- | --- |
| CS(=O)(=O)N1CCc2nc(-c3ccccc3)sc2C1 | inconclusive: 14.6 µM [activator, partial curve] |
| CCOC(=O)C1=C(COC(=O)COc2ccccc2C=O)NC(=O)NC1C (stereo not drawn) | inconclusive: 20.6 µM [activator, single point] |
| CCC(NC(=O)Cc1c(C)c2cc3c(cc2oc1=O)OC(C)(C)CC3)C(=O)O (stereo not drawn) | inconclusive: 18.3 µM [activator, partial curve] |

Later entries:

| SMILES | Potency |
| --- | --- |
| O=Cc1ccc(OCC(=O)N2CCOCC2)cc1 | inactive |
| CCOC(=O)c1sc(=S)n(-c2ccc(C)cc2)c1SC | inactive |
| O=C(O)/C=C/c1ccc(Oc2ncccn2)cc1 | inactive |
| CN(C)S(=O)(=O)c1ccc(Cl)c(NC(=O)CSc2nnnn2-c2ccc(O)cc2)c1 | inconclusive: 29.1 µM [inhibitor, single point] |
| O=c1c2c3c(sc2nc(N2CCNCC2)n1CCc1ccccc1)CCCCC3 | inactive |
| Cc1ccc(C)n1-c1sc2c(c1C#N)CCC(C)C2 (stereo not drawn) | inconclusive: 23.1 µM [activator, single point] |
| COc1ccc(C(=O)NCc2cn3ccccc3n2)cc1 | inconclusive: 4.47 µM [activator, full curve, poor fit] |
| Cc1nc(Cc2nnc(SCC(=O)N3CCN(c4ccc(F)cc4)CC3)o2)cs1 | inactive |
| CC1CC(C)CN(S(=O)(=O)c2ccc3c(c2)oc(=O)n3CC(=O)NCCCOC(C)C)C1 (stereo not drawn) | inactive |
| COc1cnn(-c2ccccc2)c(=O)c1OC | inconclusive: 18.3 µM [activator, partial curve, poor fit] |
| COc1cc(C(C)=O)ccc1COc1ccc(C(=O)OC(C)C(=O)NC(N)=O)cc1OC (stereo not drawn) | inconclusive: 20.6 µM [inhibitor, partial curve, poor fit] |
| COc1c2ccccc2nc2ccccc12 | inactive |
| COc1ccc(-c2cn(Cc3ccc(C(=O)NCc4ccc(C)cc4)cc3)c(C(C)N)n2)cc1 (stereo not drawn) | inconclusive: 10 µM [inhibitor, single point] |
| Cc1ccc(S(=O)(=O)N/N=C2/CCCCC2C2CCCCC2)cc1[N+](=O)[O-] (stereo not drawn) | inconclusive: 11.6 µM [activator, partial curve] |
| COc1ccc(Cc2nc3ccc(C(=O)NCCc4cccc(C)n4)cc3o2)cc1 | inconclusive: 32.6 µM [inhibitor, single point] |
| Cc1ccc(SCC(=O)OCC(=O)N(CC(C)C)c2c(N)n(Cc3ccccc3)c(=O)[nH]c2=O)cc1C | inactive |
| O=C(CN1CCCCC1)Nc1nnc(-c2ccccc2)s1 | inconclusive: 23.1 µM [activator, partial curve] |
| Cc1cc(C)cc(N(C(C)C(=O)N2CCCCC2)S(C)(=O)=O)c1 (stereo not drawn) | inconclusive: 3.26 µM [inhibitor, partial curve, poor fit] |
| COC(=O)c1ccc(NC(=S)Nc2ccc(O)cc2)cc1 | inactive |
| CCOC(=O)N1CCN(C(=O)c2cn(C)c(=O)c3c2c2ccccc2n3C)CC1 | inconclusive: 25.9 µM [activator, single point] |
| O=C(N/N=C/c1ccc(-c2cccc([N+](=O)[O-])c2)o1)c1ccccc1O | inconclusive: 18.3 µM [inhibitor, partial curve] |
